Laboratory results taken from US10590393B2, “Retinoic acid enhanced human stem cell derived blood brain barrier model” (Wisconsin Alumni Research Foundation, priority 2012, dated 2020).
For at least one compound, name, drawing or mass did not settle the structure. Some compounds share one wording; it may come from a single statement.

Columns and labels:
[1] = test system: differentiating IMR90-4 hiPSCs; assay: Adherens junction and tight junction protein expression (immunocytochemistry, flow cytometry, western blot); type: cell-based, human
Description: Cells were washed twice with phosphate-buffered saline (PBS; Sigma) and fixed with either 100% ice-cold methanol for 10 min or 4% paraformaldehyde for 15 min. Cells were then washed twice with PBS and blocked in PBS containing 40% goat serum (40% PBSG; Sigma) at 20° C. for 30 min. In some instances, 0.1% Triton X-100 (TX-100) was included during this step to permeabilize the cells. Cells were then washed once with PBS and incubated with primary antibodies against occludin (1:100; Invitrogen), claudin-5 (1:100; Invitrogen), VE-cadherin (1:25; Santa Cruz Biotechnology), von Willebrand Factor (vWF; 1:100; Dako), p-glycoprotein (clone F4; 1:25; Lab Vision), breast cancer resistance protein (BCRP, clone 5D3; 1:25; Millipore), multidrug resistance protein 1 (MRP1, clone QCRL-1; 1:100; Millipore), in 40% PBSG at 4° C. overnight. Cells were washed three times with PBS and incubated with secondary antibodies (goat anti-rabbit Texas Red and goat anti-mouse Alexa Fluor 488; 1:500; Invitrogen) for 1 h at 20° C. […] For quantitative analysis of BMEC integrity, the percentage of cells expressing frayed tight junctions was counted using BMECs immunolabeled for occludin. […] A minimum of four separate frames and 1000 total cells were counted to obtain a percentage of frayed tight junctions.
Cells were washed once with PBS and dissociated with ACCUTASE for 5 min, then spun down and fixed in 2% paraformaldehyde for 15 min or 100% methanol for 10 min at 20° C. […] After another two washes with PBS containing 5% FBS, cells were analyzed on a FACSCALIBER flow cytometer and the IgG control was used to quantify positive labeling. Elevated GLUT-1 expression was quantified using a GLUT-1/forward scatter plot referenced to baseline GLUT-1 expression measured at day 4 of UM culture.
Cells were washed once with PBS and lysed with RIPA buffer (Pierce, Rockford, Ill., USA). Protein concentration was quantified via BCA assay (Pierce) and proteins were then resolved by SDS-PAGE on 4-20% Tris-Glycine gradient gels (Invitrogen). […] Protein levels were detected via a SUPERSIGNAL West Pico Chemiluminescent Substrate (Pierce).

[2] = test system: iPSC-derived BMECs; assay: Test of compounds for the ability to mimic the activity of RA (elevated TEER); type: cell-based, human; conditions: for induction of elevated TEER: ability to mimic the activity of RA
Excerpt: Further, Applicants tested a list of compounds for the ability to mimic the activity of RA.
A typical retinoic acid-enhanced blood brain barrier is created as described below and in the figures. Retinoic acid suitable for the present invention may be obtained from commercial sources such as Sigma-Aldrich. […] Both types of RA are suitable for the present invention.

CC1=C(/C=C/C(C)=C/C=C/C(C)=C/C(=O)O)C(C)(C)CCC1 [RA, retinoic acid]
VE-cadherin expression ([1]; 1 μM RA): could not
VE-cadherin expression ([1]; 10 μM RA): induce significant VE-cadherin expression
number of cells with elevated GLUT-1 expression ([1]; flow cytometry, following RA treatment): remained unchanged
enhancement by RA isoform ([2]; two isoforms of RA tested): producing the desired enhancement

CC1(COc2ccc(CC3SC(=O)NC3=O)cc2)CCCCC1 (stereo not drawn) [ciglitazone]
induction of elevated TEER [2]: not to induce elevated TEER

CO[C@H]1/C=C/O[C@@]2(C)Oc3c(C)c(O)c4c(O)c(c(/C=N/N5CCN(C)CC5)c(O)c4c3C2=O)NC(=O)/C(C)=C\C=C\[C@H](C)[C@H](O)[C@@H](C)[C@@H](O)[C@@H](C)[C@H](OC(C)=O)[C@@H]1C [rifampicin]
induction of elevated TEER [2]: not to induce elevated TEER
